This is an account of results in publication PMC2958826.

Amino acid sequences for entries named in this document (tags omitted). A change or cut given only in a name is not applied to a line headed by its entry. Chains listed by the source or under a name are the forms on record and can include a tag or linker.
UniProt Q96EB6: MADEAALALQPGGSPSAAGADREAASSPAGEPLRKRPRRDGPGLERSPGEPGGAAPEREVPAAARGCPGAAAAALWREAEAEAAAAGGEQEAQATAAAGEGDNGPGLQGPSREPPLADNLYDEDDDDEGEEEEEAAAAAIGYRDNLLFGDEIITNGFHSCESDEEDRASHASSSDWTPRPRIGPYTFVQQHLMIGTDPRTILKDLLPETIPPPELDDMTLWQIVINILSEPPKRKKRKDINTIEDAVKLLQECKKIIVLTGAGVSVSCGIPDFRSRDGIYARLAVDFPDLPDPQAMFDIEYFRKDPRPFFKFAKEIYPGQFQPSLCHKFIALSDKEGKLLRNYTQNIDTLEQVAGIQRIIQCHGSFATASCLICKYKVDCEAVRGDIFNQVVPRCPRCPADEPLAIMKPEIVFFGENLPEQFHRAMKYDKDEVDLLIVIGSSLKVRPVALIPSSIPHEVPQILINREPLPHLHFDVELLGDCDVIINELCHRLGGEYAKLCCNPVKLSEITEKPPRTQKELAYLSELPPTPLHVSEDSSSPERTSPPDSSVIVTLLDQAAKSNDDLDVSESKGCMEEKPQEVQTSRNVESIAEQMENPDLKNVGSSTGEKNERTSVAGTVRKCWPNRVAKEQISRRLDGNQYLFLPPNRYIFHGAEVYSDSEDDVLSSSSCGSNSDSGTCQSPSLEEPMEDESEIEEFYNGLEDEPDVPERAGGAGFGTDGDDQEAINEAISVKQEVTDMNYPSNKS
SIRT1-ΔExon8 (Myc/His-tagged) (Q96EB6-2, form named): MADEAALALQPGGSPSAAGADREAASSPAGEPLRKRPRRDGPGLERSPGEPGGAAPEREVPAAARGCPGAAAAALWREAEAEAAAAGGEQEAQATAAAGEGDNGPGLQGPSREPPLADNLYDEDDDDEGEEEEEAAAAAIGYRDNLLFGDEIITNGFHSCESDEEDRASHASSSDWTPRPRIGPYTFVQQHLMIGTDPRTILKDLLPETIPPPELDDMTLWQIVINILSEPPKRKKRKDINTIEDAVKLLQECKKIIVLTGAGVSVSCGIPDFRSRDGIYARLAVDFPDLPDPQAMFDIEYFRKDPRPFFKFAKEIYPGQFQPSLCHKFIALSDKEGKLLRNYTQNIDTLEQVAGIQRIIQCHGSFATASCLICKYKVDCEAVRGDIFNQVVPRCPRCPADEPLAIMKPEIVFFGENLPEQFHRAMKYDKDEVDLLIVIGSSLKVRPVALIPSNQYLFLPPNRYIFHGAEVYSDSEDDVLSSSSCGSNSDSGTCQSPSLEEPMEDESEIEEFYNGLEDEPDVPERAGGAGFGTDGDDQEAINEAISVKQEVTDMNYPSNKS

Assay [1] deals with SIRT1-ΔExon8 (Myc/His-tagged) (human) (UniProt Q96EB6). In words: co-IP; Myc-SIRT1-ΔExon8 expressed in HCT116 cells; lysates immunoprecipitated with anti-c-Myc (Pierce Mammalian c-Myc Tag IP/Co-IP kit); Western blot of eluates for endogenous partners. Background: A western blot detects proteins with antibodies after separation by electrophoresis.
Assay [2] has the same target. In words: pull-down; affinity purification of the His-tag of Myc/His-SIRT1-ΔExon8 expressed in HCT116 cells; eluates probed by Western blot with anti-c-Myc and a C-terminal SIRT1 antibody (residues 448-747).
Assay [3] has as its target T1, Flag-tagged human AROS (Active Regulator Of SIRT1) (human) (UniProt Q86WX3).
T1 sequence: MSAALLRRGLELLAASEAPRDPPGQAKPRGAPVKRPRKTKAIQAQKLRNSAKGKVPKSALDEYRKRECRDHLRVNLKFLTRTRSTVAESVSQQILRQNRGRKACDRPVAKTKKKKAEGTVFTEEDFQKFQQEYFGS
In words: co-IP; Myc-SIRT1-ΔExon8 and Flag-AROS co-expressed in HCT116 cells; Flag epitope immunoprecipitated (Sigma FLAGIPT1), eluted with FLAG peptide; blot with anti-c-Myc.

No constants are given. Whether binding was seen depends on the method and setting. Binding seen in cells or lysates may run through a third protein. Some entries that bind do so weakly or less than the wild type. For part of these data: Sequences can lack the tags named with a protein.

Regarding “SIRT1-Full-Length (endogenous) (from UniProt Q96EB6-1 1-747)”, the binding result in assay [1] and in assay [2] was “no binding” in each case.

Take “SIRT1-ΔExon8 (Myc/His-tagged) (from UniProt Q96EB6-2 1-561)”: the binding result in assay [3] is “binds”.
